These are yes or no findings as the source states them, for the method shown. Binding seen in cells or lysates may run through a third protein. Some entries that bind do so weakly or less than the wild type.
How the values were obtained:
[1] = target: wildtype EWSR1 (human (endogenous in JN-DSRCT-1 and BER-DSRCT)) (UniProt Q01844); experiment: co-IP; reverse immunoprecipitation: nuclear extracts of BER-DSRCT and JN-DSRCT-1 cells, endogenous proteins; N-term EWSR1 antibody, protein G magnetic beads, Western blot
[2] = target: androgen receptor (human (endogenous in JN-DSRCT-1 and BER-DSRCT)) (UniProt P10275); experiment: co-IP; nuclear extracts (0.3 M NaCl high salt buffer) of JN-DSRCT-1 and BER-DSRCT cells, endogenous proteins; overnight at 4 °C with 2 μg anti-AR antibody or IgG control, protein G magnetic beads, Western blot
[3] = target: androgen receptor (human (endogenous in JN-DSRCT-1 and BER-DSRCT)) (UniProt P10275); experiment: co-IP; nuclear extracts of BER-DSRCT cells overexpressing FLAG-tagged EWSR1 or WT1; immunoprecipitation with anti-AR or control antibody, protein G magnetic beads, Western blot

Protein sequences, listed by entry. Tags and fused reporters are not part of them.
UniProt Q01844: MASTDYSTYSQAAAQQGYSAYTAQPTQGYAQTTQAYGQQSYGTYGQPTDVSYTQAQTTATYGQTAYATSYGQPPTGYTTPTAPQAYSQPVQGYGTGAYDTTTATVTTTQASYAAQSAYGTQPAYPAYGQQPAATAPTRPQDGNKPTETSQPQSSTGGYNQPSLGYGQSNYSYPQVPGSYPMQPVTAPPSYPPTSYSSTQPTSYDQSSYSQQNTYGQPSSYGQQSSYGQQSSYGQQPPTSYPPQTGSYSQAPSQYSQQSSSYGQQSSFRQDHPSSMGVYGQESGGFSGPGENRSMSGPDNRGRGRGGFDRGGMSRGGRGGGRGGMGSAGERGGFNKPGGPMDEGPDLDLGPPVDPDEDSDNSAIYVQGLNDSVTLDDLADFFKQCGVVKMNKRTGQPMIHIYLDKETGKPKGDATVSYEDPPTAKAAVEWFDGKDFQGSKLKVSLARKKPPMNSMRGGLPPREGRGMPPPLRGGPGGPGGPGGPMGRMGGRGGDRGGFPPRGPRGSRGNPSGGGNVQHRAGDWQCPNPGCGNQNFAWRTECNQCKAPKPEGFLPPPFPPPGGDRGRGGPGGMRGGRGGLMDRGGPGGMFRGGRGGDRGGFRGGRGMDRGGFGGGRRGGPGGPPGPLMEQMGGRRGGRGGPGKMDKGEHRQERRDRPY
UniProt P10275: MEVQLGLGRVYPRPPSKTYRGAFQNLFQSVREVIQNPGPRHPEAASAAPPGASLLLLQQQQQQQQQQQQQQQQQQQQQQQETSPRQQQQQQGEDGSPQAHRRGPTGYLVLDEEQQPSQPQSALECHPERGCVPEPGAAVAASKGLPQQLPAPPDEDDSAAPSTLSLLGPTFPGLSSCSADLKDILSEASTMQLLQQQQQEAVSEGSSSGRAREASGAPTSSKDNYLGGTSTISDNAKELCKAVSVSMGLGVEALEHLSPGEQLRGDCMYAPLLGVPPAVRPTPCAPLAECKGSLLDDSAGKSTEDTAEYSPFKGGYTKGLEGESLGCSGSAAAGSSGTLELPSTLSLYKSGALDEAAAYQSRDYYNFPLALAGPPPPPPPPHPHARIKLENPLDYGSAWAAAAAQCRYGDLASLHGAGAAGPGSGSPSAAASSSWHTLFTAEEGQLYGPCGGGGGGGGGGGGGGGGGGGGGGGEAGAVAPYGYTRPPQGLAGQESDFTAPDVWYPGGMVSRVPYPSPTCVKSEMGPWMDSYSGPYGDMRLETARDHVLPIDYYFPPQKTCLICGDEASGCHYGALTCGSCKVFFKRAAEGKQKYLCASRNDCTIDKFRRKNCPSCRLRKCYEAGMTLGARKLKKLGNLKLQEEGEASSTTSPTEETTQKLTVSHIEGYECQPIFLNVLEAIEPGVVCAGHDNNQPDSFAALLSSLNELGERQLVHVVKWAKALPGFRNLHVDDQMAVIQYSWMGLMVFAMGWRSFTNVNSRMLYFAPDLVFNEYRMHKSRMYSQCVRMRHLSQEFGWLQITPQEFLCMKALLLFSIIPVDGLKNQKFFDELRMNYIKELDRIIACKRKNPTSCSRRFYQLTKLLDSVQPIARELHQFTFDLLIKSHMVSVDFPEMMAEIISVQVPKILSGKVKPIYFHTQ

Row | binding [3] | Substance | other results
1 | – | androgen receptor (from UniProt P10275 1-920) | binding [1]: binds
2 | – | wildtype EWSR1 (from UniProt Q01844 1-656) | binding [2]: binds
3 | binds | FLAG-tagged EWSR1 (from UniProt Q01844 1-656) | –
4 | no binding | FLAG-tagged WT1 (from UniProt P19544 1-449) | –

Source: publication PMC10995187
